{
  "source": "paper PMC10917850",
  "assay_in_all_cases": "co-IP; HEK293T cells co-transfected with Myc-tagged TEKT1, 2, 3 or 4 and Flag-TEKTIP1; Pierce IP Lysis Buffer; precipitated with Myc-Tag antibody and Protein A/G agarose at 4 C; blotted with anti-Flag",
  "key": {"[1]": {"biological_target": "T1, Myc-tagged TEKT2 (UniProt Q922G7)", "T1 sequence": "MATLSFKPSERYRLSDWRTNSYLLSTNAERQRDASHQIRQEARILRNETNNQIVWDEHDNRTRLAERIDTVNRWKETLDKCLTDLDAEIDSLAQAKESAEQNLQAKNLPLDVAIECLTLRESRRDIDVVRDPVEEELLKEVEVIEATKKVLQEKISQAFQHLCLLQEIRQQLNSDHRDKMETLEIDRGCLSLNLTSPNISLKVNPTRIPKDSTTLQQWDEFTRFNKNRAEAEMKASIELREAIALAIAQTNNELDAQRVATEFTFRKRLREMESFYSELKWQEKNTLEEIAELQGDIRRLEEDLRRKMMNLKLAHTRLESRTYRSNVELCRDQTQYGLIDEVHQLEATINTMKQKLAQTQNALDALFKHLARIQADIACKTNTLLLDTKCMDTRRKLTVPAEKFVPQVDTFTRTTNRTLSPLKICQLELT"}, "[2]": {"biological_target": "T2, Myc-tagged TEKT3 (UniProt Q6X6Z7)", "T2 sequence": "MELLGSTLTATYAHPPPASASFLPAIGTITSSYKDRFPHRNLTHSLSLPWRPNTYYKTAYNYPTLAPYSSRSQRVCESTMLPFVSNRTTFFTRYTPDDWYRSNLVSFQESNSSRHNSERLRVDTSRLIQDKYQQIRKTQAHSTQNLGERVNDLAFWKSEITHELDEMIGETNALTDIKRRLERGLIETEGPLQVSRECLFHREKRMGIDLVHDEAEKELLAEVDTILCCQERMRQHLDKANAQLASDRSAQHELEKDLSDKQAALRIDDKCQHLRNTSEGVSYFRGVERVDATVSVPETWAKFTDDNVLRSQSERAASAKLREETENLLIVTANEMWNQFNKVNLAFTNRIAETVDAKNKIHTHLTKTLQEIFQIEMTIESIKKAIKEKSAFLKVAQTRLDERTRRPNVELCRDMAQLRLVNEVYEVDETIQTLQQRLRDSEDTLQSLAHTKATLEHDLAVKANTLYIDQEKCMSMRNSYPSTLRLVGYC"}, "[3]": {"biological_target": "T3, Myc-tagged TEKT4 (UniProt Q149S1)", "T3 sequence": "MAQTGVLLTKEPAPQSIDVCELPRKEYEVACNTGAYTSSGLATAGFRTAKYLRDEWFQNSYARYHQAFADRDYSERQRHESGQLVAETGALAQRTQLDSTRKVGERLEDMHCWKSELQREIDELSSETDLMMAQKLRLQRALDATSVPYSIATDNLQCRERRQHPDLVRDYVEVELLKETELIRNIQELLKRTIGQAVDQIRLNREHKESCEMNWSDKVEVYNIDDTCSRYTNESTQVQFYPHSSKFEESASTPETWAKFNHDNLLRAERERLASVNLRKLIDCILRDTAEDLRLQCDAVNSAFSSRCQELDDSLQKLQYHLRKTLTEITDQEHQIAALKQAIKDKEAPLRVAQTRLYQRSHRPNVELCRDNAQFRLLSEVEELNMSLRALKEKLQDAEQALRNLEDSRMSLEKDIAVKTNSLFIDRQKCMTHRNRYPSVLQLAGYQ"}},
  "note": "No constants are given. Whether binding was seen depends on the method and setting. In cells and extracts the contact can be indirect. For part of these data: Binding can be weak; no strength is given. Tags and fused reporters may be left off the sequences shown.",
  "data": [
    {"substance": "Flag-tagged TEKTIP1", "values": [
      {"measurement": "binding", "setting": "[1]", "result": "no binding"},
      {"measurement": "binding", "setting": "[2]", "result": "binds"},
      {"measurement": "binding", "setting": "[3]", "result": "no binding"}
    ]}
  ]
}
